According to PubChem BioAssay AID1347075 (National Center for Advancing Translational Sciences (NCATS), 2019):
Where “and” joins values, the source holds several entries; their conditions need not be identical. Equal values may be shown once. Out of some 400,000 compounds screened, about 5,500 (1.4%) were called active. Inconclusive means that the source gave no clear call. Such entries were picked first, then a sample of the others. The call rests on the fitted dose curve; in most records, active means well fitted cell-killing curve with a large enough effect; inconclusive means small, poorly fitted or top-dose-only effect, or effect the other way; inactive means flat fitted curve, though single readings scatter. Where the call is inconclusive, the potency comes from a doubtful curve fit.

Test: qHTS assay for MDR1-selective chemotherapeutics: Primary screen using the parental adenocarcinoma cell KB-3-1; further: nearly all actives have a fitted effect of over 60% in size
Settings: KB-3-1 viability, CellTiter-Glo ATP luminescence, 72 h; series mostly up to 46.1 µM
Summary of the method: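 Screening of KB-3-1 cells (DMEM, 10% FBS, phenol-red free) ran from lowest to highest compound concentration; after 72 h at 37 °C viability was read luminescently and curves fitted.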
Potency means the concentration at half of the fitted maximal effect.

Row | SMILES | Potency
1 | O=C(CCN(CCO)Cc1ccccc1)Nc1ccc(Br)cc1 | inactive
2 | Cc1ccc(NC2=C(NC(=O)c3ccccc3)C(=O)c3ccccc3C2=O)cc1Cl | inconclusive: 29.1 µM [cytotoxic, single point]
3 | CC(=O)c1cccc2c(O)c(C3=Nc4ccccc4C3=O)[nH]c12 | inconclusive: 20.6 µM [cytotoxic, single point]
4 | Cn1c(=O)c2c(SCC(=O)NC3CCCC3)nc(CC(C)(C)C)nc2n(C)c1=O | inactive
5 | COc1cccc(N2CCN(C(=O)C3CCN(S(=O)(=O)c4ccc5c(c4)CC(C)N5C(C)=O)CC3)CC2)c1 (stereo not drawn) | inconclusive: 20.6 µM [cytotoxic, single point]
6 | CCCCn1c(SCc2c(C)noc2C)nc2cc(S(N)(=O)=O)ccc21 | inconclusive: 29.1 µM [cytotoxic, single point]
7 | COc1ccc(C)cc1NS(=O)(=O)c1c(C)nc2sc(C)cn2c1=O | inactive
8 | COc1ccccc1NC(=O)C1=C(C)Nc2nc(SCC(=O)c3ccc(C)cc3)nn2C1c1ccccc1C (stereo not drawn) | inactive
9 | O=C(Nc1ccccn1)c1cccs1 | inconclusive: 23.1 µM [cytotoxic, single point]
10 | CSCCC(NS(=O)(=O)c1ccc2c(c1)oc(=O)n2C)C(=O)NCc1ccc(F)cc1 (stereo not drawn) | inactive
11 | CCOC(=O)N1CCN(Cc2nc3ccc([N+](=O)[O-])cc3c(=O)n2-c2ccccc2F)CC1 | inconclusive: 23.1 µM [cytotoxic, single point]
12 | CCc1ccc(C2CC(c3ccco3)=NN2S(C)(=O)=O)cc1 (stereo not drawn) | inconclusive: 29.1 µM [cytotoxic, single point]
13 | O=C(CCc1ccccc1)NC(=S)Nc1ccc(S(=O)(=O)N2CCOCC2)cc1 | inconclusive: 29.1 µM [cytotoxic, single point]
14 | CC1CC(C)CN(S(=O)(=O)c2ccc(F)c(C(=O)Nc3ccc(Cl)cc3F)c2)C1 (stereo not drawn) | inactive
15 | O=C(Nc1nccs1)c1cccc(N2C(=O)c3cccc4c([N+](=O)[O-])ccc(c34)C2=O)c1 | inconclusive: 20.6 µM [cytotoxic, partial curve, poor fit]
16 | CCOC(=O)N1CCN(S(=O)(=O)c2ccc(C(=O)Nc3ccc(F)cc3F)cc2)CC1 | active: 4.61 µM
17 | CCCCSc1cc(=O)[nH]c(N)n1 | inactive
18 | COc1ccc(OC)c(-c2noc(N3CCN(c4ccc(C(C)=O)cc4)CC3)n2)c1 | inactive
19 | C/C(=N\NC(=O)c1cc(O)cc(O)c1)c1ccc(NC(=O)Cc2ccccc2)cc1 | inconclusive: 0.0326 µM [rising, full curve, poor fit]
20 | Cc1ccc(S(=O)(=O)N2c3cc(C)ccc3OCC2C(C)(C)C)cc1 (stereo not drawn) | inconclusive: 29.1 µM [cytotoxic, single point]
21 | Cc1ccc(S(=O)(=O)N(CC(=O)N=Nc2c(O)[nH]c3ccccc23)c2cccc(C)c2)cc1 | active: 20.6 µM
22 | N=c1n(CC(=O)c2cccs2)c2ccccc2n1Cc1ccccc1 | inconclusive: 0.92 µM [cytotoxic, full curve]

Row | SMILES | Potency
23 | C[C@@H]1CN([C@H](C)CO)S(=O)(=O)c2ccc(C#Cc3ccccc3F)cc2O[C@@H]1CN(C)C(=O)Cc1ccccc1 | inconclusive: 20.6 µM [cytotoxic, single point]
24 | COc1ccc(CNC(=O)c2sc(=O)n(Cc3ccc(-c4ccccc4)cc3)c2C)cc1OC | inconclusive: 5.17 µM [cytotoxic, full curve]
25 | OC(COCc1ccc2c(c1)OCO2)CN1CCN(Cc2ccccc2)CC1 (stereo not drawn) | inactive
26 | O=C(/C=C/c1ccccc1O)c1ccco1 | inconclusive: 29.1 µM [cytotoxic, single point]
27 | Cc1ccc(/C=N/NC(=O)c2c(C)nc3ccc(Br)cn23)cc1 | active: 1.46 µM
28 | O=C1/C(=C/c2ccc([N+](=O)[O-])cc2)C=C(c2ccccc2)N1c1ccc(O)cc1 | inconclusive: 29.1 µM [cytotoxic, single point]
29 | COC(=O)Cn1ncc(N2CC(C)OC(C)C2)c(Cl)c1=O (stereo not drawn) | inactive
30 | Oc1ccc(O)c(C=NNC(=S)NC2CC3CC2C2C=CCC32)c1 (stereo not drawn) | inconclusive: 29.1 µM [cytotoxic, single point]
31 | Cc1ccccc1C(=O)NC(=S)Nc1ccc(Oc2ccc(Cl)cc2)cc1 | inconclusive: 18.4 µM [cytotoxic, partial curve, poor fit]
32 | COc1ccc(C(=O)Nc2nnc(-c3cccs3)s2)cc1 | active: 5.17 µM
33 | O=C1OCCN1C(=O)[C@H]1[C@H](c2ccc(Cl)cc2)C(c2cccc(Cl)c2)=NN1c1ccc(Br)cc1 | inconclusive: 20.6 µM [cytotoxic, single point]
34 | CCCCCCn1c(=O)n2n(c1=O)C[C@]1(OC(=O)NCC3CCCCC3)CN(S(=O)(=O)c3ccc(C)cc3)C[C@]1(O)C2 | inconclusive: 29.1 µM [cytotoxic, single point]
35 | CC(C)C[C@@H](CO)N1CCN(Cc2cccnc2)CCC1=O | inactive
36 | CC(=O)N1c2ccc(S(=O)(=O)N3CCC(C(=O)NCCc4ccc(Cl)cc4)CC3)cc2CC1C (stereo not drawn) | inconclusive: 16.4 µM [cytotoxic, partial curve]
37 | COc1ccc(/C=C/C(=O)c2cc(F)ccc2OC(=O)c2ccccc2C)cc1OC | inconclusive: 0.651 µM [cytotoxic, full curve, poor fit]
38 | CCOc1ccc(-c2nnc(SCC(=O)Nc3cc(F)ccc3F)o2)cc1 | inconclusive: 18.4 µM [cytotoxic, single point]
39 | COCCCNC(=O)c1ccc(Cn2c(=O)c3ccccc3n(Cc3ccccc3C)c2=O)cc1 | inconclusive: 16.4 µM [cytotoxic, single point] and inconclusive: 18.4 µM [cytotoxic, single point]
40 | C=CCN1/C(=C(\C#N)C2=NS(=O)(=O)c3ccccc32)N(C)c2ccccc21 | inactive
41 | COc1cc(OC)c(OC)cc1CCC(C)NCCC(c1ccccc1)c1ccccc1 (stereo not drawn) | inactive
42 | CC(O)CNc1nc(NCc2ccccc2)c2cnn(C)c2n1 (stereo not drawn) | inactive
43 | COC(=O)c1ccc2c(=O)n(Cc3ccco3)c(SCC(=O)Nc3cc(C)on3)nc2c1 | inconclusive: 32.6 µM [cytotoxic, single point]

Copied from the list.
CCOC(=O)N1CCN(S(=O)(=O)c2ccc(C(=O)Nc3ccc(F)cc3F)cc2)CC1 – Potency: active: 4.61 µM
COc1cccc(N2CCN(C(=O)C3CCN(S(=O)(=O)c4ccc5c(c4)CC(C)N5C(C)=O)CC3)CC2)c1 (stereo not drawn) – Potency: inconclusive: 20.6 µM [cytotoxic, single point]
